## Results of single-concentration screens

Each number is a percent effect as filed. The record does not define 0% and 100%; most values in the screen are far below 50% and negative numbers occur (in some assays of this library far below -100). This is an unselected part of the compounds tested. Two or more numbers in one place are separate tests of the same structure; such repeats can differ widely.

Mtb cholesterol medium: 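Phenotypic screen: M. tuberculosis growth, cholesterol and DPPC medium, 4 days; the read-out is not stated. Tested at 50 µM. The record gives no direction; compounds that gave an IC50 in retests scored well above the rest, so higher reads as more growth inhibition. Of about 69,000 compounds tested this way, about 370 (0.54%) reached 50% or more in at least one test.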
Mtb glucose medium: 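Whole-cell growth test on Mycobacterium tuberculosis, read after 3 days in glucose-containing 7H9 medium; the read-out is not stated. Tested at 50 µM. Direction is inferred from retests: higher values go with more growth inhibition. Of about 69,000 compounds tested this way, about 760 (1.1%) reached 50% or more in at least one test.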

Result for O=C(NCCNc1ccccn1)NC1CCOC2(CCCCC2)C1 (centres unmarked) was Mtb cholesterol medium: -7.285%; Mtb glucose medium: 5.454% & 16.69%.
Result for CCC(CNS(C)(=O)=O)Oc1ccccc1C (centres unmarked) was Mtb cholesterol medium: 9.538%; Mtb glucose medium: 27.67%.
Result for FC1(F)CCN(c2ccccc2)CC12CCN(c1ncccn1)C2 (centres unmarked) was Mtb cholesterol medium: 12.27%; Mtb glucose medium: 4.175% & 7.777%.
Result for CCOc1cc(CNC(=O)C(C#N)c2nc(C)cs2)ccc1OC(F)F (centres unmarked) was Mtb cholesterol medium: -15.33%; Mtb glucose medium: 9.43%.
Result for CCCc1n[nH]c(C2CN(CCC(F)(F)F)CCO2)n1 (centres unmarked) was Mtb cholesterol medium: 1.623%; Mtb glucose medium: 6.613%.
Result for NCc1cn(CC2CCCN(C(=O)CC3=CCCCC3)C2)nn1 (centres unmarked) was Mtb cholesterol medium: -6.833%; Mtb glucose medium: -3.673%.
Result for CC1(NC(=O)CNC(=O)C(C)(C)C)CCc2ccccc2C1 (centres unmarked) was Mtb cholesterol medium: 18.55%; Mtb glucose medium: 3.853%.
Result for O=C(O)C(F)(F)F.O=C(c1nc2c(o1)CN(CC1CC1)C2)N1CCCC1 was Mtb cholesterol medium: 4.765%; Mtb glucose medium: 12.79% & 0.9508%.
Result for O=C(c1n[nH]cc1Br)N1CCOCC1 was Mtb cholesterol medium: 0.9827%; Mtb glucose medium: -11.02%.
Result for CC(=O)Nc1cccc(CN2CCCC2C(=O)Nc2nccs2)c1 (centres unmarked) was Mtb cholesterol medium: -4.833%; Mtb glucose medium: -12.64%.
Result for [H][C@@]12CCN(S(=O)(=O)c3ccccc3)C[C@]1(c1nnc(C)o1)CCO2 was Mtb cholesterol medium: 1.676%; Mtb glucose medium: 33.13%.
Result for [H][C@@]12CCN(CC3CC3)C[C@@]1([H])[C@H](C(=O)N1CCCCO1)CCO2 was Mtb cholesterol medium: -10.72%; Mtb glucose medium: -12.36%.
Result for Cc1occc1C(=O)N1CCC2(CC1)CN(c1ccccn1)CCO2.O=C(O)C(F)(F)F was Mtb cholesterol medium: -21.04%; Mtb glucose medium: 1.678%.
Result for Cc1ccc(C(=O)NCC2COCCO2)c(=O)[nH]1 (centres unmarked) was Mtb cholesterol medium: 2.948%; Mtb glucose medium: 12.17%.
Result for COCC(=O)N1CCC2(CC1)CN(c1ccsc1)C(=O)CO2 was Mtb cholesterol medium: -0.07878% & -17.92%; Mtb glucose medium: -29.26%.
Result for CCN(Cc1ccc(C#N)cc1F)C(=O)CN(C)CC(N)=O was Mtb cholesterol medium: 4.948%; Mtb glucose medium: -5.734%.
Result for CN1CCC(CNC(=O)c2cccc(CN3CCCCCC3)c2)C1 (centres unmarked) was Mtb cholesterol medium: 10.15%; Mtb glucose medium: 41.34%.
Result for COc1nc(N2CCC(CC(N)=O)CC2)ncc1Br was Mtb cholesterol medium: -10.86%; Mtb glucose medium: 7.586% & -12.31%.
Result for Cc1[nH]ncc1CCCNC(=O)N1CCOC(C)C1 (centres unmarked) was Mtb cholesterol medium: -17.61%; Mtb glucose medium: 3.906% & -25.87%.
Result for CN(CCOc1cccc(CNS(C)(=O)=O)c1)C1CCOCC1 was Mtb cholesterol medium: 5.305%; Mtb glucose medium: -7.988% & 23.45%.
Result for CCc1nc(N2CCC3(CC2)OCCCC3O)ncc1C (centres unmarked) was Mtb cholesterol medium: -10.05% & -18.12%; Mtb glucose medium: 2.623%.
Result for CCC(N)C(=O)N1CCC(OCc2ccc(Cl)c(Cl)c2)CC1.Cl (centres unmarked) was Mtb cholesterol medium: 28.43%; Mtb glucose medium: 43.76%.
Result for CCOCCCNC(=O)N(C)Cc1ccc(SC)c(OC)c1 was Mtb cholesterol medium: -4.028%; Mtb glucose medium: 22.77%.
Result for CC1(C)Cc2nc(C(C)(C)C)ncc2C(NC(=O)Cc2nnn[nH]2)C1 (centres unmarked) was Mtb cholesterol medium: -4.424%; Mtb glucose medium: -20.19%.

Repeated from the top, 2 entries:

{"structure": "O=C(NCCNc1ccccn1)NC1CCOC2(CCCCC2)C1", "stereo": "centres unmarked", "Mtb cholesterol medium": -7.285, "Mtb glucose medium": "5.454 & 16.69"}
{"structure": "CCC(CNS(C)(=O)=O)Oc1ccccc1C", "stereo": "centres unmarked", "Mtb cholesterol medium": 9.538, "Mtb glucose medium": 27.67}

Measurements from “University of Dundee, Small-Polar-MMV Screening Library” (2021), ChEMBL document CHEMBL3988442.